{"source": "paper PMC8983078", "about": "(Drug Discovery Today, 2022)", "origin": "cited, not measured here", "key": {"[1]": {"system": "Middle East respiratory syndrome (MERS)-CoV", "settings": "cited from earlier work"}, "SARS-CoV-1": {"system": "SARS-CoV-1", "settings": "cited from earlier work"}}, "data": [{"smiles": "Cc1ccc(NC(=O)c2ccc(CN3CCN(C)CC3)cc2)cc1Nc1nccc(-c2cccnc2)n1", "note": "[Imatinib]", "values": [{"measurement": "antiviral activity against MERS-CoV", "setting": "[1]", "value": "antiviral activity"}, {"measurement": "antiviral activity against SARS-CoV-1", "setting": "SARS-CoV-1", "value": "antiviral activity"}]}]}
